Laboratory results reported in publication doi:10.1101/2025.01.10.632409.
These are yes or no findings as the source states them, for the method shown. For some of these results: Binding can be weak; no strength is given.

Legend:
[1] = molecular target: TatC from Pisum sativum (thylakoidal) (Pisum sativum (endogenous in pea thylakoids)); experiment: condition: only after treatment with DDM, in complex #4
[2] = molecular target: TatC from Pisum sativum (thylakoidal) (Pisum sativum (endogenous in pea thylakoids)); experiment: condition: only after additional treatment with DDM, Triton X-114 or heat
[3] = molecular target: TatC from Pisum sativum (thylakoidal) (Pisum sativum (endogenous in pea thylakoids)); experiment: native gel or EMSA
[4] = molecular target: TatC from Pisum sativum (thylakoidal) (Pisum sativum (endogenous in pea thylakoids)); experiment: native gel or EMSA; remark: listed apart in the source

- binding [1]: no binding
- binding [2]: no binding
- binding [3]: binds
- binding [4]: binds
B1: TatB from Pisum sativum (thylakoidal) (protein, UniProt Q94G16 87-261)
chain: ASLFGVGAPEALVIGVVALLVFGPKGLAEVARNLGKTLREFQPTIREIQDVSREFKSTLEREIGIDDITNPLQSTYSSNVRNTTPTPSATEITNNSQTAVDPNGKVDESKAYSSEEYLKITEEQLKAVAAQQQEQTSSPKEDEIEQQIQPPANETAATVPPPQKPESESSLPSDL
